Measured values from paper PMC9025464.
Results are given in words; binding and its absence hold for the method and conditions named. In cells and extracts the contact can be indirect. Some binding calls cover weakened binding; strength is not graded here.

Protein sequences, listed by entry. Tags and fused reporters are not part of them.
UniProt P03372: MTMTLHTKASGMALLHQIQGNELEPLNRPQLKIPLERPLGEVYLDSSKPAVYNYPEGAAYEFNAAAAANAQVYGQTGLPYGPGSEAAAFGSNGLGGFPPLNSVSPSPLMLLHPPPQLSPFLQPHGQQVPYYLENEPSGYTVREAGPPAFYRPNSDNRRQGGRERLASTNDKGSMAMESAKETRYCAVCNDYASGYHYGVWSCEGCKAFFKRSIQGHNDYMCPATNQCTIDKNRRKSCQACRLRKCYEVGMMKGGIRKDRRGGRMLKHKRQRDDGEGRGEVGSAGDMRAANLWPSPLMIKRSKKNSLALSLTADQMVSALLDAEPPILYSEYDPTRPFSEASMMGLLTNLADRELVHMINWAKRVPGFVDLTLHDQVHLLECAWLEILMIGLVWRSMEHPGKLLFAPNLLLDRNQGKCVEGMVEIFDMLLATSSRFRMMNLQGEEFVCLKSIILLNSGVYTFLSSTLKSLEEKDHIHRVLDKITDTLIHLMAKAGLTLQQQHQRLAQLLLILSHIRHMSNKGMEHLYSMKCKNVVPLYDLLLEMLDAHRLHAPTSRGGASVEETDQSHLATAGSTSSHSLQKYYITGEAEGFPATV

Biological target: T1, hepatocyte nuclear factor 4α (human (endogenous in HepG2)) (UniProt P41235)
T1 sequence: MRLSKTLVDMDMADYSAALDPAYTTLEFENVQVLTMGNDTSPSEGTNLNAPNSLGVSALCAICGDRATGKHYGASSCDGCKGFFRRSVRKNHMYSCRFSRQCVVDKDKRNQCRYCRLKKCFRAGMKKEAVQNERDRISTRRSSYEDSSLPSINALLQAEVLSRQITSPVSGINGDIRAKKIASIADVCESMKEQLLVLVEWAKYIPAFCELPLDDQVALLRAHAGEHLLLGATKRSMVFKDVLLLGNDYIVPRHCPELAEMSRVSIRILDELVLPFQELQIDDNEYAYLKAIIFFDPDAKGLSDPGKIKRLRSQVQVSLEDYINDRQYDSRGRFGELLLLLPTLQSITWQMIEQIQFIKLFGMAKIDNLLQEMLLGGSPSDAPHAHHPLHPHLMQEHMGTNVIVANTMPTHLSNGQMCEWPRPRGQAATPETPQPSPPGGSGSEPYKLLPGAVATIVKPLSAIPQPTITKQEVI
Assay: co-IP; 2 mg total protein lysate of pHBV1.2-transfected HepG2 cells treated with BA or BAA1 (50 uM) for 4 days; 2 ug anti-HNF4α/anti-ERα antibodies with protein A/G magnetic beads overnight at 4 °C; rabbit IgG as negative control; washed three times with PBS; Western blotting

- binding: binds
Substance: estrogen receptor α (from UniProt P03372 1-595)
